Five substances from PMC4742742 can be followed below.

Protein sequences, listed by entry. Tags and fused reporters are not part of them. Lines headed by an entry give the natural chain unless they say otherwise; changes in a name come on top.
UniProt P16109: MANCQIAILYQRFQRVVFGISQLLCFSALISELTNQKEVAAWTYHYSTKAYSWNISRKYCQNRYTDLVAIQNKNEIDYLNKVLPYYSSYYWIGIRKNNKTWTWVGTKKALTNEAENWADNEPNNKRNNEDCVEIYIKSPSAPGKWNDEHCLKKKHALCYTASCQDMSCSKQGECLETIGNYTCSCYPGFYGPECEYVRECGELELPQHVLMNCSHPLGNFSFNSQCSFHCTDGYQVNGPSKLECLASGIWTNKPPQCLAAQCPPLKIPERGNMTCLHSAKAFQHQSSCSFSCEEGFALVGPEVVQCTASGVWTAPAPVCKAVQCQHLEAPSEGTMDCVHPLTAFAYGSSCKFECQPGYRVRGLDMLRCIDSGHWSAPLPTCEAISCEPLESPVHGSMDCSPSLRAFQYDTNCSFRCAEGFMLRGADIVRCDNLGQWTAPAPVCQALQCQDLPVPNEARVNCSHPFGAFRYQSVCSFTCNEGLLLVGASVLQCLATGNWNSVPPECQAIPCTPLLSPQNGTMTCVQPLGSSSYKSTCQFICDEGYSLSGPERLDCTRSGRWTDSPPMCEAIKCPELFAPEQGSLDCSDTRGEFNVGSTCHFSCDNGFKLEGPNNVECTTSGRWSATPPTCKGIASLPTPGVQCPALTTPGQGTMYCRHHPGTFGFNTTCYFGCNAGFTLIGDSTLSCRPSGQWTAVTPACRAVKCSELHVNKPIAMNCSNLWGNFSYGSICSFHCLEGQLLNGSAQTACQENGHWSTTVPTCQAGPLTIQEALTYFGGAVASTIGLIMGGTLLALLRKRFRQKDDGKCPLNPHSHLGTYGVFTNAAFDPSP

No constants are given. Whether binding was seen depends on the method and setting. For some assays here: Binding seen in cells or lysates may run through a third protein. Some results given as binding are weak or reduced against the parent protein; the word gives no strength.

The target of test [1] is Recombinant P-selectin-Fc fusion protein (UniProt P16109). The experiment in a line: SPR; P-selectin-Fc immobilised on SensiQ COOHV chip by amine coupling; full-length Efb 100 nM-2.8 μM; SensiQ Pioneer FE; Qdat fit; both purified.
Test [2] deals with P-selectin, native, of human platelets (human (endogenous in platelets)) (UniProt P16109). Briefly: flow cytometry on cells; 1 μM FITC-Efb on washed human platelets (10^7/ml) stimulated with 0.25 unit/ml thrombin, no added fibrinogen; with or without 50 μg/ml P-selectin-Fc; only the binder purified. In general terms: In flow cytometry, cells or beads pass a laser one at a time.
Test [3] concerns the target Recombinant P-selectin-Fc fusion protein (UniProt P16109). The experiment in a line: co-IP; cell-free: 2 μg/ml P-selectin-Fc and PSGL-1-Fc co-incubated 2 h in PBS plus 1 mM CaCl2; PSGL-1 immunoprecipitated with 10 μg/ml antibody; with or without 5 μM Efb or Efb-N; immunoblot; both purified.
The target of test [4] is FITC-labeled full-length Efb (residues 29-165) (Staphylococcus aureus). The experiment in a line: flow cytometry on cells; competition: 50 μg/ml soluble P-selectin-Fc against thrombin-stimulated platelets for 1 μM FITC-Efb; both purified.
The target in test [5] is N-terminal region of Efb (Efb-N), recombinant residues 29-103, His-tagged (Staphylococcus aureus). The experiment in a line: pull-down; His-tagged Efb or Efb-N on His-Select HF nickel affinity gel; human platelet lysate (ultrasonication) with 3 mg/ml added fibrinogen; immunoblot; only the target purified. (In general: A western blot detects proteins with antibodies after separation by electrophoresis.)

Test [6] concerns the target Extracellular fibrinogen-binding protein (Efb), recombinant full-length Efb (residues 29-165), His-tagged (Staphylococcus aureus). The description is as above.
Test [7] has as its target N-terminal region of Efb (Efb-N), recombinant residues 29-103, His-tagged (Staphylococcus aureus). The experiment in a line: pull-down; His-tagged Efb or Efb-N on His-Select HF nickel affinity gel; human platelet lysate (ultrasonication) without added fibrinogen; immunoblot; only the target purified.
For test [8], the target named is Extracellular fibrinogen-binding protein (Efb), recombinant full-length Efb (residues 29-165), His-tagged (Staphylococcus aureus). The description is as above.

As for “Extracellular fibrinogen-binding protein (Efb), recombinant full-length Efb (residues 29-165), His-tagged (from UniProt A0A0H2XIH9 29-165)”, the binding result in test [1] is “binds”. “FITC-labeled full-length Efb (residues 29-165) (from UniProt A0A0H2XIH9 29-165)”: in test [2], the binding entry is “binds”. For the substance “N-terminal region of Efb (Efb-N), recombinant residues 29-103, His-tagged (from UniProt A0A0H2XIH9 29-103) (domain or fragment)”, the binding entry in test [3] is “binds”. “Recombinant P-selectin-Fc fusion protein (from UniProt P16109 42-771)”: the binding entry in test [4] was “binds”.

For “P-selectin, native, of human platelets (from UniProt P16109 42-830) (receptor)”, the binding entry in test [5], in test [6], in test [7] and in test [8] was “binds” throughout.
